The test system of this test is HCoV-229E. Details: species or system Huh-7; HTS, protection from HCoV-229E induced cell death, luminescent cell viability (CellCounting-Lite 2.0), inhibition rate. The conditions noted are these: 24 h post infection, 1 h compound pre-incubation, 10 µM, inhibitor.

Molecules are shown by their SMILES. Counter-ions that a name gives are not always drawn. Like-named read-outs stand apart in the source and are kept apart here. In all, about 3,300 compounds went through this assay and about 95 (3%) showed an effect of 50% or more. Some of the results follow.

With `COc1c(/C=C/C(=O)c2ccc(O)cc2)ccc(O)c1O` [Licochalcone B], the “229E Inhibition rate” value is 25.4%. On the same count and under the same terms, to `Cc1cnccn1` [2-Methylpyrazine] belongs 12.8%; to `O=C(/C=C/c1ccc(O)cc1)c1ccc(O[C@@H]2O[C@H](CO)[C@@H](O)[C@H](O)[C@H]2O)cc1O` [Neoisoliquiritin], 24.9%; to `CC(=O)OC[C@H]1O[C@@H](OC[C@H]2O[C@@H](OC(=O)[C@]34CCC(C)(C)C[C@H]3C3=CC[C@@H]5[C@@]6(C)CC[C@H](O[C@@H]7OC[C@H](O)[C@H](O)[C@H]7O[C@@H]7O[C@H](CO)[C@@H](O)[C@H](O)[C@H]7O)C(C)(C)[C@@H]6CC[C@@]5(C)[C@]3(C)CC4)[C@H](O)[C@@H](O)[C@@H]2O)[C@H](O)[C@@H](O)[C@@H]1O[C@@H]1O[C@@H](C)[C@H](O)[C@@H](O)[C@H]1O` [Acanthopanaxoside B], 6.2%. On the same count and under the same terms, in the case of `Cc1ccc(CO)o1` [5-Methyl-2-furanmethanol] it was 15.6%; in that of `C[C@]12CC[C@@H]3c4ccc(O)cc4CC[C@H]3[C@@H]1C[C@@H](O)[C@@H]2O` [Estriol], 47.7%. Same read-out and setting: in the case of `COC(=O)Cc1c[nH]c2ccccc12` [Methyl 2-(1H-indol-3-yl)acetate] it was 38.3%; in that of `O=C1CCC[C@@H]2[C@H]3CCCN4CCC[C@@H](CN12)[C@H]34` [Allomatrine], 8.4%. In the case of `Cc1cccc2c3c(ccc12)C1=C(C(=O)C3=O)[C@@H](C)CO1` [Dihydrotanshinone I], the “229E Inhibition rate” value was 18.1%. On the same count and under the same terms, in the case of `C=C[C@H]1[C@H](O[C@@H]2O[C@H](CO)[C@@H](O)[C@H](O)[C@H]2O)OC=C(C(=O)OC)[C@H]1CCOC(=O)c1cccc(O[C@@H]2O[C@H](CO)[C@@H](O)[C@H](O)[C@H]2O)c1O` [Depressine] it was 0%; in that of `O=C(O)c1ccc2ccccc2n1` [Quinoline-2-carboxylic acid], 10.5%.

Consider `OC[C@H]1O[C@@H](O[C@H]2[C@H](O)[C@@H](O)[C@@H](O)O[C@@H]2CO)[C@H](O)[C@@H](O)[C@H]1O` [α-Lactose], for which the “229E Inhibition rate” value worked out at 8.4%. Same read-out and setting: in the case of `COc1ccc(-c2cc(=O)c3c(O)cc(O[C@@H]4O[C@H](CO[C@@H]5O[C@@H](C)[C@H](O)[C@@H](O)[C@H]5O)[C@@H](O)[C@H](O)[C@H]4O)cc3o2)cc1O` [Diosmin] it was 13.1%.

Turning to `COc1cc(O)cc(/C=C/c2ccccc2)c1` [Pinosylvin monomethyl ether], the “229E Inhibition rate” value is 0%.

For `CC(C)CCCC(C)CCCC(C)CCCCC(C)CCCC(C)CCCC(C)C` (centres unmarked) [Squalane], the “229E Inhibition rate” value was found to be 8.8%. For the compound `COc1ccc(-c2oc3c(CC=C(C)C)c(O)cc(O)c3c(=O)c2O[C@@H]2O[C@@H](C)[C@H](O)[C@@H](O)[C@H]2O[C@@H]2O[C@H](CO)[C@@H](O)[C@H](O)[C@H]2O)cc1` [Sagittatoside A], the “229E Inhibition rate” value amounted to 16.7%. In the case of `COc1cc2c(cc1O)-c1cc3ccc(OC)c(OC)c3c[n+]1CC2` [Columbamine], the “229E Inhibition rate” value is listed as 12.8%. On to `CC1=C[C@]2(O)O[C@@]3(CC2=C(C)C)[C@@H](C)CC[C@@H]13` [Curcumenol], for which the “229E Inhibition rate” value is recorded as 64.3%.

For the compound `CCCCCCCCCCCCO` [1-Dodecanol], the “229E Inhibition rate” value stood at 28.5%. In the case of `CC1=C(CC[C@H](C)CO[C@@H]2O[C@H](CO)[C@@H](O)[C@H](O)[C@H]2O)O[C@H]2C[C@H]3[C@@H]4CC[C@@H]5C[C@@H](O[C@@H]6O[C@H](CO)[C@H](O)[C@H](O)[C@H]6O[C@@H]6O[C@H](CO)[C@@H](O)[C@H](O)[C@H]6O)CC[C@]5(C)[C@H]4CC[C@]3(C)[C@@H]12` [Timosaponin B III], the “229E Inhibition rate” value is given as 11.6%. The same measure, in the same setting: in the case of `O=c1c2cc(O)c(O)cc2oc2cc(O)c([C@@H]3O[C@H](CO)[C@@H](O)[C@H](O)[C@H]3O)c(O)c12` [Mangiferin] it was 33.2%; in that of `CC(C)=CCc1c(O[C@@H]2O[C@H](CO)[C@@H](O)[C@H](O)[C@H]2O)cc(O)c2c(=O)c(O[C@@H]3O[C@@H](C)[C@H](O)[C@@H](O)[C@H]3O)c(-c3ccc(O)cc3)oc12` [Epimedoside A], 15.1%; in that of `COc1cc(/C=C/C(=O)O)cc(O)c1O` [5-Hydroxyferulic acid], 7.5%. In the case of `C=C1C[C@]23C[C@@]1(O)CC[C@H]2[C@@]12C=C[C@H](O)[C@@](C)(C(=O)O1)[C@H]2[C@@H]3C(=O)O` [Gibberellic acid], the “229E Inhibition rate” value is on record as 17.7%.

As for `CC1(C)C=CC(=O)C1` [4,4-Dimethyl-2-cyclopenten-1-one], the “229E Inhibition rate” value was 4.8%. `CN1[C@@H](CC(=O)c2ccccc2)CCC[C@H]1C[C@H](O)c1ccccc1` [Lobeline (hydrochloride)]: the “229E Inhibition rate” value is recorded as 10.6%.

In the case of `O[C@H]1[C@H](O)[C@H](O)[C@@H](O)[C@H](O)[C@H]1O` [D-chiro-Inositol], the “229E Inhibition rate” value was found to be 13.8%.

Take `COc1cc2oc(-c3ccc(O)cc3)cc(=O)c2c(O)c1[C@@H]1O[C@H](CO)[C@@H](O)[C@H](O)[C@H]1O[C@@H]1O[C@H](CO)[C@@H](O)[C@H](O)[C@H]1O` [Spinosin]: the “229E Inhibition rate” value turned out to be 16.9%. For `NCCc1c[nH]cn1` [Histamine (dihydrochloride)], where the note is “229E Inhibition rate, 24 h”, the “229E Inhibition rate” value is listed as 36.5%. On to `C[N+]1(C)CCC[C@H]1C(=O)[O-]` [Stachydrine], for which the “229E Inhibition rate” value (229E Inhibition rate, 24 h) was 13.8%. For `Nc1[nH]cnc2ncnc1-2` [Adenine monohydrochloride hemihydrate], where the note is “229E Inhibition rate, 24 h”, the “229E Inhibition rate” value was 9.2%. Regarding `C[C@@H]1CC[C@@H]2O[C@@]23C(=O)C(=O)[C@@H]2[C@@H](C2(C)C)[C@@]13C` [Kanshone C], the “229E Inhibition rate” value is reported as 23.6%.

As to `COC1=C2C[C@@H](C)C[C@H](OC)[C@H](O)[C@@H](C)/C=C(\C)[C@H](OC(N)=O)[C@@H](OC)/C=C\C=C(/C)C(=O)NC(=CC1=O)C2=O` [Geldanamycin], the “229E Inhibition rate” value stood at 19.9%. Still for that read-out and setting: in the case of `CC(=O)c1c(O)c(C)c(O)c2c1OC1=CC(=O)C(C(C)=O)C(=O)C12C` (centres unmarked) [Usnic acid] it was 13.1%; in that of `C[C@H]1CC[C@@]2(OC1)O[C@H]1C[C@H]3[C@@H]4CC[C@@H]5C[C@@H](O[C@@H]6O[C@H](CO)[C@H](O)[C@H](O)[C@H]6O)CC[C@]5(C)[C@H]4CC[C@]3(C)[C@H]1[C@@H]2C` [Timosaponin A1], 0%.

The values above are taken from publication PMC12431657, “Discovery and mechanistic insights of dibenzoylmethane as a broad spectrum inhibitor of coronavirus” (PLOS Pathogens, 2025).
